Drawing on PubChem BioAssay AID493014 (National Center for Advancing Translational Sciences (NCATS), 2011), this text covers AC50 for 62 compounds.

Molecules are shown by their SMILES. The list shows a part of the results. Shown are side measurements of this screen, not its main read-out; they come without a call. Compounds called inactive in the main read-out are mostly missing here. Words in brackets tell the shape of the fitted curve; partial curves, single points and poor fits give uncertain potencies.

A short description of this assay: qHTS Assay to Find Inhibitors of Chronic Active B-Cell Receptor Signaling. The conditions noted are these: ABC-DLBCL IkBa-CBG/CBR reporter, luminescence ratio (green luciferase fused to IkBa over red control in TMD8 lymphoma cells), 4 h. An outline of the steps:
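Concentration-response series (up to 46 uM) were applied to TMD8 dual-reporter cells for 4 h at 37C with doxycycline. Green/red ratio, after filter-overlap correction, defined %Activity; red signal alone was normalised to basal cells and zero luminescence.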

Where [1] appears, read: measured here: CBR red luminescence, cell number.
[2] abbreviates: measured here: IkBa-CBG green luminescence.

In the case of `CCOc1c(Br)cc(CNc2ccc3c(c2)OCCO3)cc1OC`, the AC50 by setting is: under setting [1], 11.6 µM [rising, partial curve, poor fit]; under setting [2], 13 µM [falling, partial curve, poor fit]. On to `CC1CCN(CC(=O)Nc2ccccc2Sc2ccccc2)CC1`, for which the AC50 under setting [1] was 18.4 µM [rising, partial curve, poor fit].

On to `COc1cccc(NC(=O)NCc2c(-c3ccccc3)noc2C)c1`, for which the AC50 under setting [1] is 15.8 µM [falling, single point]. As to `COc1ccc(N2C(=O)C(Cl)=C(Nc3ccccc3O)C2=O)cc1`, the AC50 under setting [1] was 13 µM [falling, partial curve, poor fit]. Still for that read-out and setting: the value for `O=C(NCc1ccc(N2CCCC2=O)cc1)c1ccc(F)cc1` was 15.8 µM [rising, single point]; that for `COc1cc2nc(-c3ccc(Br)o3)oc(=O)c2cc1OC` was 6.31 µM [falling, partial curve, poor fit]. The same measure, in the same setting: the value for `CN(CC(=O)Nc1sccc1C(N)=O)S(=O)(=O)c1ccc(Cl)cc1` was 18.4 µM [rising, partial curve, poor fit]; that for `Cc1cc(C)n(-c2ccc(-n3ccnc3)nn2)n1` was 8.91 µM [falling, partial curve, poor fit]; that for `CCc1ccc([C@@H]2CC=C(C(=O)O)[C@H](c3ccccc3)N2S(=O)(=O)c2ccc(C)cc2)cc1` was 20.6 µM [falling, single point]. Same read-out and setting: the same measure for `COc1ccc(C(=O)N/N=C/c2c(C)[nH]c(=O)[nH]c2=O)cc1`: 20 µM [falling, partial curve, poor fit]. With `Cc1c(NC(=O)c2cccs2)cccc1-c1nc2ccccc2s1`, the AC50 was 20.6 µM [falling, partial curve] under setting [1] and 18.4 µM [rising, partial curve, poor fit] under setting [2]. On to `N#CC(C#N)=C1C(=O)N(CCN2CCCCC2)c2ccccc21`, for which the AC50 under setting [1] is 3.16 µM [falling, partial curve, poor fit]. In the case of `Cc1ccc(Cl)cc1NC(=O)c1cc2ccccc2cc1O`, under setting [1], the AC50 was 6.31 µM [falling, full curve].

Regarding `COC(=O)c1cccc(NC(=O)CN2CCN(Cc3ccccc3)CC2)c1`, the AC50 under setting [1] was 5.8 µM [falling, full curve, poor fit].

`Cc1[nH]nc(C(F)(F)F)c1CCC(=O)NC1CCCCCC1`: under setting [1], the half-maximal activity concentration (AC50) is 0.82 µM [rising, partial curve, poor fit]. With `O=C(CSc1n[nH]c(-c2ccc(Br)cc2)n1)NC1CCCC1`, under setting [1], the AC50 was 0.517 µM [rising, full curve, poor fit]. Turning to `Cc1cc(OCC(=O)NC(C)C)cc(C)c1Cl`, the concentration at half-maximal activity (AC50) under setting [1] was 8.2 µM [rising, partial curve, poor fit].

As for `O=C(CSc1nnc(-c2ccccc2)c(-c2ccccc2)n1)N1CCOCC1`, the AC50 under setting [1] was 0.146 µM [falling, full curve, poor fit]. Same read-out and setting: the same measure for `CCn1nc(C)c(NS(=O)(=O)c2ccc(C)cc2)c1C`: 23.1 µM [rising, single point]; for `CC(=O)c1ccc(N2CCN(C(=O)c3cc(-c4ccncc4)nc4ccc(Br)cc34)CC2)cc1`: 0.562 µM [falling, partial curve, poor fit]; for `O=C(Nc1ccccc1)C1CCCN1S(=O)(=O)c1cccs1` (stereo not given): 9.2 µM [falling, partial curve, poor fit]. The same measure, in the same setting: the same measure for `CCc1c(C)sc(NC(=O)c2ccc(Br)o2)c1C(=O)OC`: 23.1 µM [rising, single point]; for `CCCNC(=O)c1ccc(N(Cc2ccccc2)S(C)(=O)=O)cc1`: 0.92 µM [falling, partial curve, poor fit].

As for `O=C(Nc1nnc(-c2ccc(Cl)cc2)o1)c1cccc(N2C(=O)CCC2=O)c1`, the AC50 under setting [1] is 5.17 µM [falling, full curve].

Regarding `O=C(O)CC(CC(=O)Nc1ccc(-n2ccc(C(F)(F)F)n2)cc1)c1ccccc1` (stereo not given), the AC50 under setting [1] was 3.55 µM [rising, partial curve, poor fit]. On the same count and under the same terms, the same measure for `Cc1ccc(S(=O)(=O)C(CNS(=O)(=O)c2cc(F)ccc2F)c2cccs2)cc1` (stereo not given): 0.2 µM [falling, full curve, poor fit]; for `Cc1cc(C(=O)Nc2sc3c(c2C#N)CCC(C)C3)cs1` (stereo not given): 0.82 µM [rising, full curve]. In the case of `Cc1n[nH]c(=O)c2c(NC(=O)CSc3nc4ccccc4c(=O)n3-c3ccc(OC(F)F)cc3)oc(C)c12`, the AC50 under setting [1] is 18.4 µM [falling, partial curve]. Turning to `CC(=O)Nc1cc(NC(C)=O)cc(C(=O)N2CCCC3CCCCC32)c1` (stereo not given), the AC50 under setting [1] is 0.708 µM [rising, full curve, poor fit]. In the case of `COc1ccc(Cl)cc1NC(=O)CSc1nnc(CNC(=O)c2ccco2)o1`, under setting [1], the AC50 is 35.5 µM [rising, single point].

`NNC(=O)c1ccc(Cl)cc1Cl`: under setting [1], the AC50 is 18.4 µM [falling, partial curve, poor fit]. On the same count and under the same terms, the value for `Cn1c(=O)[nH]c(=O)c2c1nc(NC1CCCCC1)n2CCO` was 11.2 µM [rising, partial curve, poor fit].

Take `CCOc1c(Cl)cc(CNc2ccc(N3CCCC3)cc2)cc1OC`: under setting [2], the half-maximal activity concentration (AC50) was 28.2 µM [falling, single point]. For `O=C(CSc1nc(=O)n(Cc2ccccn2)c2c1CCC2)Nc1ccccc1`, the AC50 under setting [1] was 35.5 µM [falling, partial curve, poor fit]. Consider `CC1=C/C(=N\S(=O)(=O)c2ccccc2)C(C(C)C)=CC1=O`, for which the AC50 under setting [1] was 8.91 µM [falling, partial curve, poor fit].

In the case of `COCCNC(=O)Cn1nc(C)c2ccccc2c1=O`, under setting [1], the AC50 was 0.112 µM [falling, full curve, poor fit]. Same read-out and setting: the same measure for `COc1ccc(CCC(=O)NC2CC(=O)N(c3ccc(F)cc3)C2)cc1` (stereo not given): 8.91 µM [rising, partial curve, poor fit]; for `O=C(NCCc1c[nH]c2ccccc12)c1ccc(F)cc1F`: 3.55 µM [falling, partial curve, poor fit]. Turning to `COc1ccccc1N=C1SC(C)CN1C(=O)C1CCC1` (stereo not given), the AC50 under setting [1] was 2.82 µM [falling, partial curve, poor fit]. As for `COc1ccc(C(c2sc3ncnn3c2O)N2CCN(c3ccccc3F)CC2)cc1OC` (stereo not given), the AC50 under setting [1] was 20.6 µM [falling, single point].

In the case of `CCOC(=O)C(=O)c1c(C)cc2ccccn12`, the AC50 was 12.6 µM [rising, single point] under setting [1] and 15.8 µM [falling, single point] under setting [2]. Consider `O=C(c1cccs1)N1CCN(C2CCN(Cc3ccccc3)CC2)CC1`, for which the AC50 under setting [1] is 0.731 µM [rising, partial curve, poor fit]. Consider `CCN1CCN(C(=O)CN(c2cccc(Br)c2)S(=O)(=O)c2ccccc2)CC1`, for which the AC50 under setting [1] was 3.26 µM [rising, partial curve, poor fit]. Same read-out and setting: the same measure for `CC1(C)c2ccccc2-n2c1cc1oc(=O)cc(O)c1c2=O`: 3.55 µM [falling, single point]; for `COC(=O)C(/C=N/OCc1ccc([N+](=O)[O-])cc1)NC(=O)c1ccccc1` (stereo not given): 18.4 µM [rising, partial curve, poor fit]. For the compound `COc1ccc(OCC(=O)OC2CCN(C)CC2)cc1`, the AC50 under setting [1] is 0.00411 µM [falling, full curve, poor fit]. Take `O=C(CCl)Nc1cccc(-c2cnc3ccccc3n2)c1`: the AC50 under setting [1] is 4.11 µM [falling, full curve, poor fit].

Consider `COc1ccc(-n2cnnc2SCC(=O)c2ccc(S(=O)(=O)N3CCOCC3)cc2)cc1`, for which the AC50 under setting [1] is 35.5 µM [rising, single point]. Turning to `Cc1cc2cc(CNC(=O)c3cccs3)ccc2n1C`, the AC50 under setting [1] was 6.51 µM [rising, single point].

As for `CC(C)c1nnc(NC(=O)C2CCN(C(=O)c3ccco3)CC2)s1`, the AC50 under setting [1] is 17.8 µM [rising, partial curve, poor fit]. On the same count and under the same terms, the value for `Nc1nnn(CC(=O)N/N=C/c2ccco2)n1` was 25.1 µM [falling, single point]. Consider `O=C1CC(NCc2cccs2)C(=O)N1c1ccc(Cl)cc1` (stereo not given), for which the AC50 under setting [1] is 3.66 µM [falling, partial curve, poor fit]. For the compound `CSc1ccc(C(=O)/C=C/c2ccc(N)cc2)cc1`, the AC50 under setting [1] is 29.1 µM [falling, single point].

As for `Cc1cccc(C2=NN(c3ccccc3)[C@@H](C(=O)N3CCOC3=O)[C@@H]2c2ccc(Cl)cc2)c1`, the AC50 under setting [1] is 18.4 µM [rising, partial curve, poor fit]. For `Cc1ccc2oc(=O)c3cnn(CC(=O)N(CCN(C)C)Cc4ccco4)c3c2c1`, the AC50 under setting [1] was 13 µM [falling, partial curve, poor fit]. The same measure, in the same setting: the same measure for `CC(=O)c1c(CSc2ccccc2)oc2ccc(O)c(CN(C)C)c12`: 12.6 µM [falling, partial curve]; for `Cc1ccc(Cn2c([N+](=O)[O-])cnc2C)cc1`: 29.1 µM [rising, single point]; for `CCOc1cccc2sc(N(CCN(C)C)C(=O)/C=C/c3cccs3)nc12`: 17.8 µM [falling, single point]. As for `COc1cccc(C(CC(=O)Nc2cccc3ccccc23)NC(=O)c2ccccc2)c1` (stereo not given), the AC50 under setting [1] was 12.6 µM [rising, partial curve, poor fit]. Still for that read-out and setting: the value for `CC(C)CC(NC(=O)C(NC(=O)C1OC2OC(C)(C)OC2C2OC(C)(C)OC12)C(C)C)C(=O)O` (stereo not given) was 31.6 µM [rising, single point]. Consider `COC(=O)c1c(C)oc2ccc(N(C(=O)c3ccncc3)S(=O)(=O)c3ccccc3)cc12`, for which the AC50 under setting [1] was 1.26 µM [falling, full curve, poor fit]. Regarding `O=C(NCCc1nc2ccccc2[nH]1)/C(=C/c1ccc(F)cc1)NC(=O)c1ccco1`, the AC50 under setting [1] was 7.94 µM [falling, partial curve].

As a reminder, the AC50 is the concentration giving half of the maximal activity seen.
